PubChem BioAssay AID488897 (Broad Institute, 2010)
The inconclusive results got no clear call from the source; some entries with a clear call stand among them for comparison.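 The calls were made as follows: active = fitted half-maximal concentration for caspase signal rise at or below the highest valid tested dose; inconclusive = flat fit at 30 to 70% of control, or poor fit; inactive = the rest.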

Test: apoptosis induction, A1-2A-tBid fibroblasts – cell-based, tBid as inducer, caspase 3/7 luminescence, dry powder, A1 inhibitor project, dose response (AID 488897)
Conditions: MEF A1-2A-tBid cells, 3 h; at 150 µM (top of the series)
How it was run: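 Assay system: Mouse embryonic fibroblasts co-expressing A1-2A-tBid, primed by tBid | Input: 2500 cells per well | Medium: TSA added at seeding | Compound dosing: Dose-response series, pin-transferred | Times: 3 h compound at 37 °C, 1 h reagent at RT | Signal: Caspase-Glo 3/7 luminescence | Measure: Caspase-3/7 activation seen as rise in luminescence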

**Q.** For COc1cc(CN2CCN(c3cc(C)ccc3C)CC2)ccc1O, which caspase activation is on record?
**A.** The caspase activation was inconclusive: 42.1%.
